# Results from PubChem BioAssay AID1347423 (Functional Genomics Laboratory (NCATS/FGL), 2020).
# Out of some 52,000 sequences screened, about 210 (0.4%) were called active.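 How the source made its calls: active means gene whose silencing raises cell survival under the drug, median off-target-corrected z-score across its silencing RNAs 2 or more; inactive means the rest.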 This is one part of the list.
# Experiment: Resistance to Poly (ADP-Ribose) Polymerase inhibitor: Gene Identification via Genome-wide siRNA Screen
# Conditions: mouse BRCA2 R2336H ES cells, olaparib, CellTiter-Glo viability; active compounds read high
# Procedure, shortened: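 Genome-wide siRNA screen (3 siRNAs/gene, 20 nM) in mouse ES cells carrying hypomorphic BRCA2 R2336H; olaparib 500 nM added 48 h post-transfection, CellTiter-Glo viability 72 h later. Normalized to plate-median negative control; MAD z-scores, gene median, seed-adjusted.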
row,Sequence,z-score
1,GGACGAGUUCAAGAGUCUCTT against Elavl3,inactive: 0.0357
2,GGAGGAAAAGAGACAGCUCTT against Ankrd25,inactive: -0.0791
3,CGAUGGCCCAUAAAUACUUTT against Gemin4,inactive: -0.904
4,GGUGUGAUGCUUGAGUGUCTT against A430090E18Rik,inactive: -1.07
5,GGAGGGAAAACCACAAGACTT against Dppa4,inactive: 1
6,GGAGCUGGUGUUGAGUGAGTT against 4933406A14Rik,inactive: -0.0278
7,GGAAACAUCGAAUCUGAUUTT against Slc11a2,inactive: 0.485
8,GGACCUUGGGUCUACAGAATT against Hoxd1,inactive: 0.271
9,CCACAAGUCAUCUUAGUGATT against Zfp236,inactive: -1.36
10,GGCCAGAUGACCUUGUCAUTT against Sult1e1,inactive: -0.228
11,GCUAGAUGCCGAAAAUCAATT against Obscn,inactive: -0.13
12,CGAAACCAUACCAGUUACUTT against Pthr1,inactive: 0.773
13,GGGCAGGACUGAAUCAAGUTT against Dkk2,inactive: 0.806
14,GCAUAAAGUUUACGUCCAATT against Irx4,inactive: 0.875
15,GGACUGGCAAUUUUAUAGATT against Pygb,inactive: 0.577
16,GGAGGUAUUCUAAAAUCACTT against Helb,inactive: 1.41
17,GGAAAUCUGUUCUUGAAGGTT against Pcdhb4,inactive: 1.16
18,CCCAGUUAGAAUUGUUAUCTT against Snx16,inactive: 0.945
19,GGUGCUAGAAACAUCCUACTT against Fbf1,inactive: 2.29
20,GGUAUUGCUUUCACAUUAUTT against C920006C10Rik,inactive: -0.814
21,CCGUCUGGGCAUGAUGAUATT against Dpep3,inactive: -1.58
22,GUGGGAAACAUUUAAUGCCTT against V1rg9,inactive: 0.297
23,GACUUCGGGCAGCAGCAUATT against Atp5e,inactive: -2.48
24,GGCUGAAGCGCAAGAGGAATT against Bing4,inactive: -0.816
25,GGUAGACUUAUGUAGAUUCTT against Mrs2l,inactive: 2.08
26,GGAUGUUUCUAACUCCUUUTT against C330016O10Rik,inactive: -0.515

row,Sequence,z-score
1,GGAAGAAGAAUACAAAGAUTT against Zfp40,inactive: -0.525
2,GGAAAAGUGGUGAACGACATT against Tm4sf4,inactive: -0.78
3,GGACAUGACAUCCAAAGACTT against Hrmt1l2,inactive: -0.11
4,GCAACUCAUGGUCAAUAUGTT against E130120L08Rik,inactive: 2.15
5,GGAACUGUGUGACUACUUUTT against Efcbp2,inactive: -0.302
6,CGAACGGAAAAAUGGAAGUTT against Gt4-1,inactive: 0.331
7,GCAAAUGAAUCAUGGGUGGTT against Rnf141,inactive: 1.26
8,GGAUCUCUACAACUACAUATT against Rrm1,inactive: -2.59
9,GCCCAAUGACAAGAUGUAUTT against Clcn2,inactive: 1.26
10,GGCAUGAGAAACUCUGACATT against Itlnb,inactive: -0.457
11,GGGACAAGUUCAUCUGAUATT against Rin1,inactive: 0.816
12,CCUCAGGUUUAGAGUUCGCTT against Krtap12-1,inactive: 0.0981
13,GGAUAUACAAAGGAACGCATT against Wdr20,inactive: 2.1
14,CCUAAUCCUUUAGUGUCUATT against Zfp198,inactive: -0.591
15,GGCUGAGGGUAAAAAGCUATT against Acyp1,inactive: -1.45
16,GGACGUGGUUGUUACCUCCTT against LOC268885,inactive: -0.612
17,CCCAGAAACGUGACACUCUTT against Il28ra,inactive: -1.19
18,GGCAUAAAAAAGUAAAUGGTT against A230035L05Rik,inactive: -1.35
19,GGAUGUCUAUUUUUGGUCATT against Esd,inactive: 0.572
20,CCACCAACCGUUAGGUUUUTT against Ube2b,inactive: 0.355
21,GCCAUUUGAAACUCUCCUGTT against BC021614,inactive: -1.31
22,GCAAUGAGGACUUACUUACTT against D4Ertd765e,inactive: 0.627
23,GGAAUUCUCUUAGUCCCUCTT against V1rc15,inactive: -0.0787
24,GGCUUGAUCUUCGUAGUGGTT against Arf1,inactive: 1.09
25,GGAUCUCUAUAGCAUCGUGTT against Col18a1,inactive: 1.73
26,GCACGAUGUCUCAGCUCUATT against 9130020G22Rik,inactive: -2.01

row,Sequence,z-score
1,GCACUACAAACAGUUCCGATT against 6030410K14,inactive: 0.554
2,GCUGCCAAUGAACAAACCATT against 4930432K09Rik,inactive: 0.431
3,GGACAUGAAUGAAACCUUCTT against Cables1,inactive: 0.115
4,CCUUGCUGUCAUUUUGCUUTT against 0610007P22Rik,inactive: 1.16
5,GCAACCAUUCUGGUAUUACTT against Zfp108,inactive: 0.697
6,GGACGGUAACAACUACAAUTT against Polg,inactive: 0.991
7,CCUAAGCUGACUCAUAUUGTT against 1700018F24Rik,inactive: -0.979
8,GGUCAUGCAAUUUAUAAGATT against A530089I17Rik,inactive: -0.269
9,GGUUUCAGAAGACUCAGUATT against Dlx5,inactive: -0.146
10,GGAGUUGAGGUGAUUAUCUTT against Olfr1222,inactive: -0.678
11,CCGAGAUUGCCUGUUUGGUTT against Ibrdc2,inactive: 1.19
12,GGAGAUAUAAAGAAGCAUUTT against BC031353,inactive: -0.815
13,GGAUGAUUGAGAUAGCGAATT against Paf53,inactive: -2.88
14,GGACAUCGCAUGUUUGAAATT against 2700049P18Rik,inactive: 1.73
15,GCAGUGGUAGAACAUCCAATT against Bhmt2,inactive: -1.39
16,GCCCUUAAAACAUAACCACTT against Fgf9,inactive: 0.148
17,GGAUCUUCAAUUCGUUGGUTT against B430218L07Rik,inactive: -0.00993
18,CGUGGAGAGAUCAAUCCCGTT against Tenr,inactive: -1
19,CCAAAGAAGGUGAGAUUUGTT against Clstn1,inactive: -1.19
20,GGUGGUAAUUUUUCUCAGATT against Agxt2,inactive: 0.321
21,GCUCUAUGAAGUGAUGACGTT against Amph,inactive: -0.189
22,GGACAUAGUGCACAAAGAGTT against Yif1,inactive: -0.599
23,GGAACUGAUAAACUACUCUTT against Olfr1126,inactive: -0.308
24,GGCUAUACAGUCUCUGAAATT against Smu1,inactive: -3.33
25,CGAAAGGCCCAUGAAUAAATT against Ascc2,inactive: 0.412
26,GGACACGUUUCUGUGUUGUTT against Phemx,inactive: 1.28

row,Sequence,z-score
1,GCAUUAGAUAGCUGAUGGCTT against 9330132A10Rik,inactive: -0.181
2,GGUGUACCCUGAAUUUGAATT against 2310038K02Rik,inactive: 0.205
3,GGUGUGUGGAUCCUCAUGUTT against Chrdl2,inactive: -1.43
4,GGACCUCGAGGACUUGUUCTT against Sfrs9,inactive: 0.308
5,GGUAGACAGUGAGUCGGAATT against Trim44,inactive: -0.554
6,GCUGUUAUGCAACAUAUAGTT against Mef2c,inactive: -0.913
7,GGAAAGAUGAGACAGCCUCTT against Impg1,inactive: 0.532
8,CCUACCAGUGACUGCUACATT against MGC67174,inactive: -1.67
9,CCGUUUUUGUGGUUCAGUGTT against Plxdc1,inactive: -0.264
10,GGAUCUCUAUAUGUGGCUUTT against 1110064N10Rik,inactive: 0.0315
11,CCAGAUGGAAAGCGAAAAATT against Thra,inactive: -0.993
12,GGAAUUAAAUCCUAGCUGATT against 0610041E09Rik,inactive: 0.158
13,GGCAUAUGCACUUUAUUUCTT against 2810403B08Rik,inactive: 0.0365
14,GCGAGUGCUUGGCUAUUAUTT against Ckap2,inactive: -1.46
15,GGUAUUUUUGCAUUUGUCCTT against 2610319K07Rik,inactive: -0.0518
16,GGUGCUGGUGGACAUUGCATT against 2810055F11Rik,inactive: -2.2
17,CCUUCAACUAUGGCAAAUATT against 2700078E11Rik,inactive: -2.32
18,GCUUGUUGAAAGGCCGAGCTT against Ankmy2,inactive: 0.589
19,CCUGAGCUAGAAUCUCAGATT against 2610510D14Rik,inactive: 0.0638
20,GGAAUGGAAUAGAUGCUCATT against C330014B19Rik,inactive: 1.79
21,GGCCCAGAACCGCAUUAAATT against Pdlim4,inactive: -0.395
22,GCCUAAGCCCUUAAAGCGUTT against D630045E04Rik,inactive: -1.32
23,GCCCAUUACCAAGCACAUCTT against Psma2,inactive: -0.7
24,GCUACAAGUGUUGCCUGAATT against Slit1,inactive: -0.505
25,GAAUCUAGAAAAGUGGUGCTT against Sprrl7,inactive: -0.119
